Results are given in words; binding and its absence hold for the method and conditions named. For part of these data: Binding seen in cells or lysates may run through a third protein. Some entries that bind do so weakly or less than the wild type. Sequences can lack the tags named with a protein.
Assays:
[1] = target: T1, GST-Zw10 (Drosophila melanogaster) (UniProt Q9W4X9); assay: pull-down
T1 sequence: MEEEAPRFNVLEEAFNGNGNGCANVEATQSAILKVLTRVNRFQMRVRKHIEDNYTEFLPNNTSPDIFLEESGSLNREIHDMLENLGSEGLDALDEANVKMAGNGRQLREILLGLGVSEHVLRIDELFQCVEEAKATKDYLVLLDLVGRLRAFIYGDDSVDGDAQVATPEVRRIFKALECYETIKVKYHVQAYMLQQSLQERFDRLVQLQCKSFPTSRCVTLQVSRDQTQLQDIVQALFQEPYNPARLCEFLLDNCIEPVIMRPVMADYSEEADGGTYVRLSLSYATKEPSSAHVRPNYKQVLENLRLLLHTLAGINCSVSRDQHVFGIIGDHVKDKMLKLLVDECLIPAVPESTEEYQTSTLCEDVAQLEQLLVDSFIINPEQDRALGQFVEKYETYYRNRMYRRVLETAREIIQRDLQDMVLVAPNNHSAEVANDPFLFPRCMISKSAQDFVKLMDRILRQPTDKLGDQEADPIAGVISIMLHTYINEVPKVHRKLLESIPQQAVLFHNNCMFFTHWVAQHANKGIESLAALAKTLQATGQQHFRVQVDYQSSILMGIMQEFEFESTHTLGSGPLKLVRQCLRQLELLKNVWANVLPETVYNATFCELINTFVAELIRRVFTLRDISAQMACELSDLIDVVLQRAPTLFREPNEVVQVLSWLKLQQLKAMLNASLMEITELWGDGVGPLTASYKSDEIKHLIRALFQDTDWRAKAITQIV

Amino acid sequences for entries named in this document (tags omitted). A change or cut given only in a name is not applied to a line headed by its entry. Residues count along the entry.
UniProt Q9VEN2: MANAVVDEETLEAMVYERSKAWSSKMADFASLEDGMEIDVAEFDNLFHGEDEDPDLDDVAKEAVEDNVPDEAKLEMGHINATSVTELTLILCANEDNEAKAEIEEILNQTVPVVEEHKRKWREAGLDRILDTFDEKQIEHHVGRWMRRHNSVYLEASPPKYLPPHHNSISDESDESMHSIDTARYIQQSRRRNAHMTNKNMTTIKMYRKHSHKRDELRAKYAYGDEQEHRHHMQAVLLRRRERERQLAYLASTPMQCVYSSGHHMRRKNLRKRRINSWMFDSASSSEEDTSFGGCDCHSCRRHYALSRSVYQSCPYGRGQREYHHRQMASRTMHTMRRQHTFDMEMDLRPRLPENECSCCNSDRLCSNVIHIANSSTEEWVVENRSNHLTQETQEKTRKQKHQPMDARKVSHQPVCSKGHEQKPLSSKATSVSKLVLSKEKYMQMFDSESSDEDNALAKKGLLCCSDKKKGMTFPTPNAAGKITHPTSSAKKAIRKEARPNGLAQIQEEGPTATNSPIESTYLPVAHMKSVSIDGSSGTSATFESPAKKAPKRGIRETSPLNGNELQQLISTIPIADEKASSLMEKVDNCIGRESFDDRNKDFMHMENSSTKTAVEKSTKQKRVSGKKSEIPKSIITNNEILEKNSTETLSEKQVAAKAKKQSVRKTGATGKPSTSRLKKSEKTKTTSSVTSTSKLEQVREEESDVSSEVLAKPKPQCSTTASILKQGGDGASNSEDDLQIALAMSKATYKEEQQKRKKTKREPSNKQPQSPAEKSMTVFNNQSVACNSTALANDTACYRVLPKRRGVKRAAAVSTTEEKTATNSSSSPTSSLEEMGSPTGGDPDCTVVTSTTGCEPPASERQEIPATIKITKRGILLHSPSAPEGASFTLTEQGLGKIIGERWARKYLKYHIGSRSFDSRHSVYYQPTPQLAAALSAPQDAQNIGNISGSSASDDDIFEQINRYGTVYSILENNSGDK
CAL1 C-terminus (amino acids 680-979), yeast two-hybrid fusion (pMM6): residues 680-979 of Q9VEN2
UniProt Q9V6Q2: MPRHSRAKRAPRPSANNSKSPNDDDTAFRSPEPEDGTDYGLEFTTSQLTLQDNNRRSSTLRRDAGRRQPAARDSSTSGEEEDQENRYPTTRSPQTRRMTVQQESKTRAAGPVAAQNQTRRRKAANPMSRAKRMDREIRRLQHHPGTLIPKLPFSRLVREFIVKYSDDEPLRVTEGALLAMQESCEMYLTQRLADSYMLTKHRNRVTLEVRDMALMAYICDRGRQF

[2] = target: T2, GFP-Zw10 (Drosophila melanogaster) (UniProt Q9W4X9); assay: co-IP
T2 sequence: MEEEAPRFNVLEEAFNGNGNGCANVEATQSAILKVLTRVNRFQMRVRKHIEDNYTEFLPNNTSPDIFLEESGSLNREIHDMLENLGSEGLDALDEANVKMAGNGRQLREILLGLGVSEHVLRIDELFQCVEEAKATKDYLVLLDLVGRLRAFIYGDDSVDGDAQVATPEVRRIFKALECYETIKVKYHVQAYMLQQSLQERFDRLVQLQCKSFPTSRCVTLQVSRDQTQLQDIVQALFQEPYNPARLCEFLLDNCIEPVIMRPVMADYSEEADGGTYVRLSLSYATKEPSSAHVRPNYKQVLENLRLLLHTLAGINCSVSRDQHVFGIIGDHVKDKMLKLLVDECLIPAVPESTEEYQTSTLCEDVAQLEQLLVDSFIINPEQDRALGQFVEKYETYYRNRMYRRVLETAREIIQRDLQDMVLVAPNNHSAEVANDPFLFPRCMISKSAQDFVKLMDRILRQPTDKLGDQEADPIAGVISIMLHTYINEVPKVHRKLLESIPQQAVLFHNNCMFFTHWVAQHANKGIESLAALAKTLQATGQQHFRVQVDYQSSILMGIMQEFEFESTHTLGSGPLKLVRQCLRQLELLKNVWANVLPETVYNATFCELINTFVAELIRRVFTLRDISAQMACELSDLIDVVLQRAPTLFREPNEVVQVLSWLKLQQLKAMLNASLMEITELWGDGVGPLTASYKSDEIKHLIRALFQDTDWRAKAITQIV

[3] = target: CAL1, full length, yeast two-hybrid fusion (pMM6) (Drosophila melanogaster) (UniProt Q9VEN2); assay: two-hybrid
[4] = target: CAL1 C-terminus (amino acids 680-979), yeast two-hybrid fusion (pMM6) (Drosophila melanogaster) (UniProt Q9VEN2); assay: two-hybrid
[5] = target: CENP-A, yeast two-hybrid fusion (pMM6) (Drosophila melanogaster) (UniProt Q9V6Q2); assay: two-hybrid

His-Sumo-CAL1 (from UniProt Q9VEN2 1-979)
binding [1]: binds

CAL1 in lysate of S2 cells that express GFP-Zw10 (from UniProt Q9VEN2 1-979)
binding [2]: binds

B1: Zw10, full length, yeast two-hybrid fusion (pMM5) (protein, UniProt Q9W4X9 1-721)
chain: MEEEAPRFNVLEEAFNGNGNGCANVEATQSAILKVLTRVNRFQMRVRKHIEDNYTEFLPNNTSPDIFLEESGSLNREIHDMLENLGSEGLDALDEANVKMAGNGRQLREILLGLGVSEHVLRIDELFQCVEEAKATKDYLVLLDLVGRLRAFIYGDDSVDGDAQVATPEVRRIFKALECYETIKVKYHVQAYMLQQSLQERFDRLVQLQCKSFPTSRCVTLQVSRDQTQLQDIVQALFQEPYNPARLCEFLLDNCIEPVIMRPVMADYSEEADGGTYVRLSLSYATKEPSSAHVRPNYKQVLENLRLLLHTLAGINCSVSRDQHVFGIIGDHVKDKMLKLLVDECLIPAVPESTEEYQTSTLCEDVAQLEQLLVDSFIINPEQDRALGQFVEKYETYYRNRMYRRVLETAREIIQRDLQDMVLVAPNNHSAEVANDPFLFPRCMISKSAQDFVKLMDRILRQPTDKLGDQEADPIAGVISIMLHTYINEVPKVHRKLLESIPQQAVLFHNNCMFFTHWVAQHANKGIESLAALAKTLQATGQQHFRVQVDYQSSILMGIMQEFEFESTHTLGSGPLKLVRQCLRQLELLKNVWANVLPETVYNATFCELINTFVAELIRRVFTLRDISAQMACELSDLIDVVLQRAPTLFREPNEVVQVLSWLKLQQLKAMLNASLMEITELWGDGVGPLTASYKSDEIKHLIRALFQDTDWRAKAITQIV
binding [3]: binds weakly

B2: Zw10 C-terminus (amino acids 482-721), yeast two-hybrid fusion (pMM5) (domain or fragment, UniProt Q9W4X9 482-721)
chain: MLHTYINEVPKVHRKLLESIPQQAVLFHNNCMFFTHWVAQHANKGIESLAALAKTLQATGQQHFRVQVDYQSSILMGIMQEFEFESTHTLGSGPLKLVRQCLRQLELLKNVWANVLPETVYNATFCELINTFVAELIRRVFTLRDISAQMACELSDLIDVVLQRAPTLFREPNEVVQVLSWLKLQQLKAMLNASLMEITELWGDGVGPLTASYKSDEIKHLIRALFQDTDWRAKAITQIV
binding [4]: binds

B3: Zwilch, yeast two-hybrid fusion (pMM5) (protein, UniProt Q9VA00 1-641)
chain: MSASANLANVYAELMRRCGESYTITYGAPPTYLVSMVGAAEAGKKIVLVFKEDRNGAVARLRTTPTRAAPKKEGSADLDLTGSPLKDDCLVDAIADLSIDLQLDHSNPWKLEEEYQRGIPVDKARSIVCSEFLQLAEGLGSVWFLCDGSDLGQTQLLQYEFNPTHFSRGILSYQGVRPAYLVTSQALVRHHGKTPDETLIENSYQVNPHMRLRCSWTSSAALPLLVNLNDCDVALNHTFRVGDCGPLTQDFMNQLRILVYIREDIVSYHTDVKQGVSRDPTYRCGSGIDMDELRESINQTMTDVSGLIGRYSISNAEFDIEDVVQRAKVRQLTDLTDKLWELLKCCHSYKDLKIAFSMLFQCAARCNIVNTPTNKNRLAKIITELANRRLAMPCLSGAEPLELLLEIGLEKLYKDYEFIYTESKMCSTNLLKDDSSGASMDDGSPQNLPQLRKSLHNAVRGDPTPGAGMRKTLLHHHGAVNSRSTKYAGSDDDAGFKNSHFDEHESTERISKLFQIHCTLEHLLMMHIHLNLANVYNDVCSELLKKPPKLVESIDDQLSDVMDIRLSAHYVRDHLDGKDPYSRHITMRSHNKFRELKTTFYFNSENICPPNLAQCFQCDDKEMVKERTYHSWIYHKIRSLK
binding [3]: no binding
binding [5]: no binding

Source: paper doi:10.1101/394981
